Screen size: about 300,000 compounds; about 5,400 (1.8%) were called active. Inconclusive means that the source gave no clear call. Such entries were picked first, then a sample of the others. The call rests on the fitted dose curve; tested in HEK293 cells. Potencies beside an inconclusive call are fits to weak or partial responses and may not hold up.
Test: qHTS for inhibitors of binding or entry into cells for Marburg Virus
Conditions: Marburg virus pseudotyped entry inhibition, cell reporter; series mostly up to 37.8 µM
Potency means the concentration at half of the fitted maximal effect.

**Q.** With O=C(c1cc(-c2cccc(Cl)c2)nc2ccccc12)N1CCN(c2ccccn2)CC1 as the compound, how does the Potency read?
**A.** inconclusive: 22.4 µM [inhibitor, single point]

**Q.** For COCCn1c(SCC(=O)Nc2ccc(S(N)(=O)=O)cc2)nc2ccccc21, which Potency is on record?
**A.** inconclusive: 12.6 µM [inhibitor, partial curve, poor fit]

**Q.** Which Potency does the source give for NNC(=O)Cn1c(-c2ccccc2)cc2ccccc21 here?
**A.** inconclusive: 0.794 µM [inhibitor, partial curve, poor fit]

**Q.** With COc1ccccc1C(=O)NCC(=O)OCC(=O)NNC(=O)c1ccc(Br)cc1 as the compound, how does the Potency read?
**A.** inconclusive: 1.26 µM [inhibitor, single point]

**Q.** With COc1cccc(-c2nnn(CC(=O)N(CC(C)C)C3CCS(=O)(=O)C3)n2)c1 (stereo not drawn) as the compound, how does the Potency read?
**A.** inconclusive: 3.55 µM [activator, single point]

**Q.** Which Potency does the source give for Cc1ccc(Nc2nc(CSc3nnc(-c4ccncc4)n3-c3ccccc3C)cs2)cc1 here?
**A.** inconclusive: 29.1 µM [inhibitor, single point]

**Q.** With O=C(Nc1nc(-c2cccnc2)cs1)c1cccc([N+](=O)[O-])c1 as the compound, how does the Potency read?
**A.** inactive

**Q.** Which Potency does the source give for Cc1cc(N)n2ncc(-c3ccc(Cl)cc3)c2n1 here?
**A.** inconclusive: 0.366 µM [activator, full curve, poor fit]

**Q.** For COc1ccc(S(=O)(=O)Nc2ccc3oc(C)c(C(=O)O)c3c2)cc1, which Potency is on record?
**A.** inactive

**Q.** For Cc1cc(C)nc(N/N=C/c2cccc([N+](=O)[O-])c2)n1, which Potency is on record?
**A.** inconclusive: 28.2 µM [activator, single point]

**Q.** For CC1CCCN(CCS(=O)(=O)c2ccccc2)C1 (stereo not drawn), which Potency is on record?
**A.** inconclusive: 0.631 µM [inhibitor, full curve, poor fit]

**Q.** For FC(F)(F)c1cccc(NC(=S)NC2CCCC2)c1, which Potency is on record?
**A.** inconclusive: 3.16 µM [inhibitor, partial curve, poor fit]

**Q.** Which Potency does the source give for COc1ccc(CNC(=O)CCCC2=NS(=O)(=O)c3ccccc3N2)cc1 here?
**A.** inconclusive: 17.8 µM [activator, single point]

**Q.** With COC(=O)N[C@H](C[N+](=O)[O-])c1cccc(C)c1 as the compound, how does the Potency read?
**A.** inconclusive: 6.68 µM [activator, single point]

**Q.** For C=CCc1c(C)nc(-c2ccccc2)nc1Nc1ccccc1O, which Potency is on record?
**A.** inconclusive: 35.5 µM [inhibitor, single point]

**Q.** Which Potency does the source give for COc1ccc(C(=O)OCC(=O)NCc2ccc3c(c2)OCO3)cc1[N+](=O)[O-] here?
**A.** inconclusive: 5.01 µM [activator, single point]

**Q.** Which Potency does the source give for O=C1CC(N2CCC(O)CC2)C(=O)N1c1ccc(Br)cc1 (stereo not drawn) here?
**A.** inactive

**Q.** Which Potency does the source give for COc1ccccc1C(=O)Nc1cc2cc(Br)ccc2oc1=O here?
**A.** inactive

**Q.** For Cc1[nH]c2ccccc2c1/C=N/NC(=O)c1cccc(S(=O)(=O)Nc2ccccc2Cl)c1, which Potency is on record?
**A.** inconclusive: 0.112 µM [activator, full curve, poor fit]

**Q.** With CCc1nnc(NCC(=O)N2CCc3ccccc32)s1 as the compound, how does the Potency read?
**A.** inconclusive: 5.62 µM [inhibitor, single point]

**Q.** For COc1ccccc1N1CCN(C(c2ccc(Cl)cc2)c2nnc(-c3cccc(F)c3)o2)CC1 (stereo not drawn), which Potency is on record?
**A.** inconclusive: 7.08 µM [inhibitor, full curve, poor fit]

**Q.** For N#CCCN(NC1=NS(=O)(=O)c2ccccc21)C(=O)c1ccccc1Br, which Potency is on record?
**A.** inconclusive: 6.31 µM [inhibitor, single point]

**Q.** Which Potency does the source give for CCOc1ccc(NC(=O)Cn2cc(C(=O)c3ccc(OC)cc3)c(=O)c3cc4c(cc32)OCO4)cc1 here?
**A.** inactive

**Q.** For CCOc1ccc(Nc2cc(C)nc3c(C)cccc23)cc1, which Potency is on record?
**A.** active: 0.891 µM

**Q.** With Cc1ccccc1Nc1c(-c2ccc(Br)cc2O)nc2sccn12 as the compound, how does the Potency read?
**A.** inconclusive: 35.5 µM [inhibitor, single point]

**Q.** With N=c1c(S(=O)(=O)c2ccccc2)cc2c(=O)n3ccccc3nc2n1CCCN1CCOCC1 as the compound, how does the Potency read?
**A.** inconclusive: 35.5 µM [inhibitor, single point]

**Q.** For CC(=O)Nc1cc2c3ccccc3ccc2c2ccccc12, which Potency is on record?
**A.** inconclusive: 1.12 µM [inhibitor, single point]

**Q.** For O=C1CC(C(=O)Nc2ccc(Cl)cc2[N+](=O)[O-])C2(CCCCC2)O1 (stereo not drawn), which Potency is on record?
**A.** inconclusive: 15.8 µM [inhibitor, single point]

**Q.** With COc1cc(SC)ccc1C(=O)N(Cc1ccccc1)c1ccccc1 as the compound, how does the Potency read?
**A.** inconclusive: 17.8 µM [inhibitor, single point]

**Q.** Which Potency does the source give for COc1cccc(/C=N/NC(=S)Nc2cccnc2)c1 here?
**A.** inconclusive: 17.8 µM [inhibitor, single point]

**Q.** For CCOc1ccc(CNCCCSc2nnnn2C)cc1OC, which Potency is on record?
**A.** inactive

**Q.** Which Potency does the source give for Cc1cc(C)cc(N(CCC#N)C(=O)CSc2nc3ccccc3c(=O)[nH]2)c1 here?
**A.** active: 10 µM

**Q.** With Cc1cccc(NC(=O)COc2ccccc2C(=O)NC(C)c2ccccc2)c1 (stereo not drawn) as the compound, how does the Potency read?
**A.** inconclusive: 35.5 µM [inhibitor, single point]

**Q.** Which Potency does the source give for O=C(COc1cccc2cccnc12)N1CCc2ccccc21 here?
**A.** inactive

**Q.** For Cc1cc(=O)[nH]c(NN=Cc2c(Cl)cccc2Cl)n1, which Potency is on record?
**A.** inactive

**Q.** With COC(=O)[C@@H]1CC[C@H](C)[C@@H](c2ccc(C)cc2)N1C(=O)c1ccc(C=NO[C@@H](C)c2cn([C@H](CO)Cc3ccccc3)nn2)cc1 as the compound, how does the Potency read?
**A.** inactive

**Q.** With Cc1cccc(Nc2nc(-c3sc(C)nc3C)cs2)c1 as the compound, how does the Potency read?
**A.** inconclusive: 35.5 µM [inhibitor, single point]

**Q.** Which Potency does the source give for COc1ccc(-c2csc(NC(=O)c3cccc(N4C(=O)CCC4=O)c3)n2)cc1OC here?
**A.** inconclusive: 0.112 µM [activator, full curve, poor fit]

**Q.** Which Potency does the source give for COC(=O)c1ccc(NC(=O)CN2CCOCC2)cc1 here?
**A.** inactive

**Q.** For COC(=O)c1sc(N/N=C/c2ccc(C(C)C)cc2)nc1C, which Potency is on record?
**A.** inconclusive: 35.5 µM [inhibitor, single point]

**Q.** Which Potency does the source give for Cc1cccc(NC(=O)CNC(=O)COc2ccc(C(=O)c3ccc(F)cc3)cc2)c1C here?
**A.** inconclusive: 0.0891 µM [inhibitor, full curve, poor fit]

**Q.** With CCOc1cc(C2C(C#N)=C(N)Oc3c2c(=O)oc2ccccc32)ccc1OC(=O)c1cccs1 (stereo not drawn) as the compound, how does the Potency read?
**A.** inactive

**Q.** With COc1ccc(-c2nnc(-c3ccc(C)cc3)o2)cc1 as the compound, how does the Potency read?
**A.** inconclusive: 1.26 µM [activator, partial curve, poor fit]

**Q.** For O=C(c1ccc(F)cc1F)C1CCN(c2ccc([N+](=O)[O-])cn2)CC1, which Potency is on record?
**A.** inconclusive: 7.08 µM [inhibitor, partial curve, poor fit]

**Q.** With CC(C)(C)N(Cc1ccccc1)C(=O)COC(=O)c1ccccc1SCC(=O)N1CCCC1 as the compound, how does the Potency read?
**A.** inactive

**Q.** With COc1ccccc1CCNC(=O)c1c(C)nn(CC(C)C)c1Cl as the compound, how does the Potency read?
**A.** inconclusive: 3.16 µM [activator, single point]

**Q.** With Cn1cnc([N+](=O)[O-])c1Sc1nc(N)nc2c1ncn2Cc1ccccc1 as the compound, how does the Potency read?
**A.** inconclusive: 17.8 µM [inhibitor, single point]

**Q.** For N#C/C(=C\c1ccccc1Cl)C(=O)Nc1ccccn1, which Potency is on record?
**A.** inconclusive: 3.98 µM [activator, partial curve, poor fit]

**Q.** Which Potency does the source give for O=C(NCc1ccc(Cl)cc1)C1CCN(C(=O)Cc2ccccc2)CC1 here?
**A.** inactive

**Q.** For COc1ccc(-n2cc(CNC3CCOCC3)c(-c3cccc(F)c3)n2)cc1, which Potency is on record?
**A.** active: 11.2 µM

**Q.** For C[C@@H](C(=O)Nc1ccc(SC(F)F)cc1)N1C(=O)C2CCCCC2C1=O (stereo partly drawn), which Potency is on record?
**A.** inactive

**Q.** With Cc1onc(-c2c(F)cccc2Cl)c1C(=O)N=C(N)N1CC(C)OC(C)C1 (stereo not drawn) as the compound, how does the Potency read?
**A.** inconclusive: 2.82 µM [activator, partial curve, poor fit]

**Q.** With COc1ccc(C2CC(=O)C(C=NCCCN3CCOCC3)=C(O)C2)cc1 (stereo not drawn) as the compound, how does the Potency read?
**A.** inconclusive: 15.8 µM [activator, partial curve, poor fit]

**Q.** For Cc1csc(NC(=O)c2ccc(C)o2)n1, which Potency is on record?
**A.** inconclusive: 35.5 µM [inhibitor, single point]

**Q.** Which Potency does the source give for Cc1cc(=O)n2c(C(=O)Nc3ccc(Br)cc3)c(C(=O)Nc3ccccc3)sc2n1 here?
**A.** inactive

**Q.** Which Potency does the source give for COc1ccc(-c2ncncc2-c2ccc(Cl)cc2)c(O)c1 here?
**A.** inconclusive: 35.5 µM [inhibitor, single point]

**Q.** For Cc1ccc(N2CC(C(=O)N3CCOCC3)CC2=O)cc1Cl (stereo not drawn), which Potency is on record?
**A.** inconclusive: 12.6 µM [activator, single point]

**Q.** For Cc1nc2ccc(N=NC3=C(O)CC(C)(C)CC3=O)cc2s1, which Potency is on record?
**A.** inconclusive: 35.5 µM [inhibitor, single point]

**Q.** With O=C(O)CC1=C(Nc2ccccc2)C(=O)N(c2ccccc2)C1c1ccc(Br)cc1 (stereo not drawn) as the compound, how does the Potency read?
**A.** inconclusive: 1.58 µM [inhibitor, partial curve, poor fit]

**Q.** Which Potency does the source give for COc1ccccc1NC(=O)C(=O)N1CCCC1 here?
**A.** inconclusive: 22.4 µM [activator, single point]

**Q.** Which Potency does the source give for Cc1cccc(C)c1OCc1cc(C(=O)N(C)Cc2cc(C3CC3)n[nH]2)no1 here?
**A.** inactive

**Q.** With O=C(Nc1ccncc1)C1COc2ccccc2O1 (stereo not drawn) as the compound, how does the Potency read?
**A.** inactive

**Q.** With COc1ccc(C=NNc2nc3ccccc3s2)cc1 as the compound, how does the Potency read?
**A.** active: 7.08 µM

**Q.** Which Potency does the source give for CC(=O)Nc1cccc(NC(=O)Nc2ccc(C)c(Cl)c2)c1 here?
**A.** inconclusive: 3.16 µM [activator, single point]

**Q.** With CCN(CC(=O)NCc1ccc(Cl)cc1)C(=O)COc1cccc(Cl)c1 as the compound, how does the Potency read?
**A.** inconclusive: 35.5 µM [inhibitor, single point]

**Q.** Which Potency does the source give for Cc1nn(C2CCS(=O)(=O)C2)c(Cl)c1/C=C/C(=O)OCC(=O)c1c[nH]c2ccccc12 (stereo not drawn) here?
**A.** inconclusive: 14.6 µM [inhibitor, partial curve]

**Q.** With COc1ccc(C2=NC(c3ccccc3)CO2)cc1 (stereo not drawn) as the compound, how does the Potency read?
**A.** inconclusive: 2.91 µM [activator, single point]

**Q.** With O=C(NCc1ccncc1)c1cccc(S(=O)(=O)Nc2ccc(SC(F)F)cc2)c1 as the compound, how does the Potency read?
**A.** inactive
